TcHisRS: 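Histidine-tRNA ligase, Trypanosoma cruzi CL Brener (UniProt Q4DA54). Enzyme assay of histidyl-tRNA synthetase; the read-out is not stated. Compounds at 30 µM. Direction is inferred from retests: higher values go with stronger inhibition. Size under these conditions: about 69,000 compounds, about 31 of them at 50% or above in at least one test.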
LiHisRS: 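Histidine-tRNA ligase, Leishmania infantum (UniProt A4I591). Enzyme assay of histidyl-tRNA synthetase; the read-out is not stated. Compounds at 30 µM. The record gives no direction; compounds that gave an IC50 in retests scored well above the rest, so higher reads as stronger inhibition. The assay is labelled LdHisRS but filed under L. infantum. Of about 69,000 compounds tested this way, about 410 (0.6%) reached 50% or more in at least one test.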
Toxoplasma: 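Assay of Toxoplasma gondii numbers, read through their beta-galactosidase reporter with a colour substrate. Tested at 10 µM. The record gives no direction; the compounds picked for IC50 retests had high values, so higher reads as fewer parasites. Of about 67,000 compounds tested this way, about 260 (0.38%) reached 50% or more in at least one test.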
PfKRS1: 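Lysine-tRNA ligase, Plasmodium falciparum 3D7 (UniProt Q8IDJ8). Enzyme assay of the cytosolic lysyl-tRNA synthetase in 384-well plates, read by luminescence. Concentration: 30 µM. Higher reads as stronger inhibition, judged from the few compounds that gave an IC50. Of about 69,000 compounds tested this way, about 49 (0.071%) reached 50% or more in at least one test.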
CoaBC: 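Coenzyme A biosynthesis protein CoaBC, Mycobacterium tuberculosis (UniProt P9WNZ1). Enzyme assay of CoaBC with a phosphate dye (Biomol Green) read at 650 nm. Tested at 30 µM. Higher reads as stronger inhibition, judged from the few compounds that gave an IC50. Most strong results did not repeat in a second test. About 67,000 compounds were tested under these conditions; 0.06% (about 40) showed 50% or more at least once.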

Amino acid sequences for entries named in this document (tags omitted). Residues count along the entry.
UniProt Q4DA54, 1-478: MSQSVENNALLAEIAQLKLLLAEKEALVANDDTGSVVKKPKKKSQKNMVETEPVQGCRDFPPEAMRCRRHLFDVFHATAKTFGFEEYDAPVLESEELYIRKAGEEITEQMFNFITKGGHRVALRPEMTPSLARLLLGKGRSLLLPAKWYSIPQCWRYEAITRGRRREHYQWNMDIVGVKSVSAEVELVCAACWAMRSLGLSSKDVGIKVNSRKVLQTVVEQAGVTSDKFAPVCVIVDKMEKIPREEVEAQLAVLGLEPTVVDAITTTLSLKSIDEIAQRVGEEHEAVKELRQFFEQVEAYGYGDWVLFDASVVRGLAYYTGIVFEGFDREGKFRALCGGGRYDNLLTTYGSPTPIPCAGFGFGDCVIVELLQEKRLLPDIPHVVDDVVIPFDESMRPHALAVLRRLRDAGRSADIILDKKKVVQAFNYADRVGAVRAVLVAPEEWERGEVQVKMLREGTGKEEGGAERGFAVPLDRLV
UniProt A4I591, 1-473: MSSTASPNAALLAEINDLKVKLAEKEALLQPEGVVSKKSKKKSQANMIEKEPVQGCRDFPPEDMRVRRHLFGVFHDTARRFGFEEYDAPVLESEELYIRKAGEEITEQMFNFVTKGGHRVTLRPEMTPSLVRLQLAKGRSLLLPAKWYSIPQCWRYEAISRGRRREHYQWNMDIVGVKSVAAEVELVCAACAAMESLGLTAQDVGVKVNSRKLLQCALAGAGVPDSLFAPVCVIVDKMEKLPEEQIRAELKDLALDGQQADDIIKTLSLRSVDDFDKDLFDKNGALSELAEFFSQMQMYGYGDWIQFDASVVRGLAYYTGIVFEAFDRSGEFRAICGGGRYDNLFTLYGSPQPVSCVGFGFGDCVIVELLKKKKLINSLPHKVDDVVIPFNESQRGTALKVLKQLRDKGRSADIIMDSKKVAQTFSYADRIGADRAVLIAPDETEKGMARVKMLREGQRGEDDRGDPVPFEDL
UniProt Q8IDJ8, 1-583: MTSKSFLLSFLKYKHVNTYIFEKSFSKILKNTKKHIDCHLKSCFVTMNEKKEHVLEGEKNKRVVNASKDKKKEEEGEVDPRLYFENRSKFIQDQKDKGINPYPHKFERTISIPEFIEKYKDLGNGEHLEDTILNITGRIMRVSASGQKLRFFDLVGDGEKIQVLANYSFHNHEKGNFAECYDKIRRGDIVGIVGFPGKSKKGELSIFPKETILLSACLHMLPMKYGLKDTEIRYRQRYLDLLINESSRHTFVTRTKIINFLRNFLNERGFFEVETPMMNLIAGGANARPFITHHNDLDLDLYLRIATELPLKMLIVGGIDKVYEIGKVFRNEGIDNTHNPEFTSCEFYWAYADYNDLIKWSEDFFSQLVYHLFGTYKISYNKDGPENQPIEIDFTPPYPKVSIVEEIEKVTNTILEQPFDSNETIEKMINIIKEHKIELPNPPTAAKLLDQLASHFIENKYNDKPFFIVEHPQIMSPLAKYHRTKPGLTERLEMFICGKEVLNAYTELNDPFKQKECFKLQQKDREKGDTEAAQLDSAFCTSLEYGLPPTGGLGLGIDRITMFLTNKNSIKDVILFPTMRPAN
UniProt P9WNZ1, whole entry: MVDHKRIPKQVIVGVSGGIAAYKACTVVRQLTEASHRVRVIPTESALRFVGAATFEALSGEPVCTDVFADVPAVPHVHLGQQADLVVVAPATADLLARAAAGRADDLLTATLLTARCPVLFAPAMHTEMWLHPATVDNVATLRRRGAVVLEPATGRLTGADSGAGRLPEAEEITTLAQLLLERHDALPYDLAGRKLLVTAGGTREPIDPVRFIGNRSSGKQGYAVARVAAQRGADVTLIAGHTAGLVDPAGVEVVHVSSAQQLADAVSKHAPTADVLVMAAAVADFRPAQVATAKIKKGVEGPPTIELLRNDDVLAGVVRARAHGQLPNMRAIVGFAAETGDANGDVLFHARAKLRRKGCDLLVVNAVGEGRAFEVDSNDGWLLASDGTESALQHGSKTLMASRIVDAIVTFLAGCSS

Results are given as percent effect.
The record does not define 0% and 100%; most values in the screen are far below 50% and negative numbers occur (in some assays of this library far below -100).
Compounds were drawn at random from those tested, without regard to their results.
Two or more numbers in one place are separate tests of the same structure; such repeats can differ widely.
A dash means the value is not listed here; it may have been measured.

SMILES	TcHisRS	LiHisRS	Toxoplasma	PfKRS1	CoaBC
COc1ccc(OC2CCN(Cc3ccn(C)c(=O)c3)CC2)cc1	4.598	12.17	-11.29	-1.623	4.258
O=C(O)c1cc(-c2ccncc2)cc(S(=O)(=O)N2CCSCC2)c1	9.189	15.38	-8.565	4.217	1.709
Cc1ccc(CCNc2ncc(C)c(-c3ccnn3C)n2)s1	-1.205	14	16.86	3.248	6.683
CC(C)c1cc(NC(=O)c2ccc(C(=O)NC(C)(C)C)cc2)[nH]n1	10.69	16.44	9.105	7.454	0.4819
CN1CCN(Cc2cccnc2)Cc2cccnc21	7.563	0.9174	-2.529	3.413	3.043
CN(c1ccccc1)c1ccc(CC2CCCN(CCO)C2)nn1 (centres undefined)	3.077	2.817	-	1.874	-1.188
CCN1CCC2(C1)CN(S(=O)(=O)c1cn(C)cn1)C2	8.543	9.901	-	2.22	0.8663
CC(C)N1CCC2(CCN(C(=O)c3cccnc3)CC2)C1.O=C(O)C(F)(F)F.O=C(O)C(F)(F)F	-	-	-2.528	-	-
CCN(CC)c1ncccc1CNC(=O)c1cnn(CC)c1	1.807	10.99	4.291	3.717	-7.195
CSC1(CNC(=O)NC(C)c2ccc(F)c(F)c2)CCOCC1 (centres undefined)	5.366	5.085	-18.15	1.143	2.133
Cn1cc(S(=O)(=O)NCc2ccc(F)cc2)cn1	-1.739	6.897	13.94	-0.5308	6.005
CC(=O)N1CCCC1C(=O)N1CCC(=Cc2cccc(F)c2)CC1 (centres undefined)	6.024	10	-5.516	6.472	5.198
Cn1cc(C(=O)N2CCC(c3cc(CCO)n(C)n3)C2)cn1 (centres undefined)	2.682	5.714	2.133	-0.02102	-4.854
COC(=O)CN(Cc1ccccc1C)C(=O)C1CCC1	0.8403	-5.263	-6.483	1.351	2.016
Cn1ccc2cc(CC3COCCN(C(=O)c4ccccn4)C3)ccc21 (centres undefined)	3.788	2.817	19	5.604	-4.932
CCCN1CCC(Cc2nn3c(C(C)C)nnc3s2)CC1	-361.4	-694.1	12.51	1.602	-81.06
CN(Cc1nccs1)c1nc(-c2ccccn2)nc2c1CCNCC2	9.756	43.27	-5.816	3.061	-27.43
CC(=O)c1ccc(N2CCCC(CO)(CCc3ccccc3)C2)nc1 (centres undefined)	-3.518	23.2	11.92	6.435	6.876
NC(=O)C1CCN(C(C(=O)O)c2ccc(Cl)c(C(F)(F)F)c2)CC1 (centres undefined)	-3.279	12.28	-9.972	-0.848	15.03
Cc1cc(C)n(CC(C)NC(=O)C(C)(C)c2ccccc2F)n1 (centres undefined)	-1.724	-15.18	-1.768	3.333	3.571
Cc1ccccc1CC1(CO)CCCN(c2ncnc3sccc23)C1 (centres undefined)	6.627	35.16	15.71	3.159	5.488
COCCn1ccnc1C1CCCN(c2cnccn2)C1 (centres undefined)	-4.831	12.5	-31.54	-0.9584	1.615
CC(C)(C)c1cc(CN2CCOC(CN)C2)n[nH]1 (centres undefined)	0.5291	11.76	28.61	10.81	-0.4073
Cc1nsc(C(=O)NCCc2cccs2)n1	3.704	9.333	16.2	-0.8184	-1.789
Cc1cc(NC(=O)Cn2ncc(Br)c2C)no1	2.232	13.58	-15.93	4.15	-3.316
Cc1ccc(-c2nc(CN3CCOC(CN(C)C)C3)co2)cc1 (centres undefined)	8.451	16.52	-10.92	2.98	4.962
CC[C@@H]1N(Cc2ccc(C)s2)CCC[C@]12CCC(=O)N2C	-1.442	15.6	-	2.054	-5.412
O=C(c1ccccn1)N1CCC(Oc2ncccc2Cl)CC1	3.093	5.217	-2.059	2.954	0.6342
CN1CCC(C)(CN(C)Cc2ccc(CCC(C)(C)O)cc2)C1 (centres undefined)	2.146	13.11	-13.17	3.794	-0.1196
O=C1CCCN1Cc1ccc(C(=O)N2CCCC2c2cccs2)cc1 (centres undefined)	0	7.08	9.228	2.034	-2.641
COc1cccc(CC(C)NC(=O)NCc2ccn(C)c2)c1 (centres undefined)	12.66	16.67	-9.638	0.2138	3.606
COc1cc2c(cc1CNC(Cc1cccs1)c1nccs1)OCO2 (centres undefined)	5.303	1.449	-	-1.565	1.314
CCN1C(=O)CCCC12CCCN(C(=O)c1conc1C)C2 (centres undefined)	-15.04	0	1.584	7.511	3.386
Cc1noc(CCNS(=O)(=O)N2CCCC2c2ccc(C)o2)n1 (centres undefined)	-0.5405	15.38	-2.042	-0.04134	16.67
NC(=O)CNC(c1ccccc1)c1ccc(OC(F)F)cc1 (centres undefined)	9.845	14.61	9.543	3.16	2.083
NC(=O)C1CCN(C(=O)NCc2ccc(-c3ccn[nH]3)cc2)CC1	2.89	11.61	19.15	2.006	1.66
CNC(=O)[C@H]1C[C@@H]2CN(C(=O)c3cccnc3)C[C@@H]2N1S(C)(=O)=O	3.81	2.778	-	-1.722	6.289
CC(C)CCC1=NC2(CCN(C(=O)CN3CCCC3=O)CC2)C(=O)N1	2.128	-6.25	0.146	5.442	7.592
CNC(=O)[C@@H]1C[C@H]2CN(c3ncccn3)C[C@H]2N1C(C)C	3.226	10.53	-	6.549	-1.057
COc1ccc(-c2nc(CN3CC(n4cc(C)cn4)C3)no2)cc1	-2.51	19.81	18.92	1.576	15.45
CCCc1cc(C(=O)NC(C)c2ccccc2)n(C)n1 (centres undefined)	8.333	14.49	4.622	0.4411	2.628
COCCC(=O)NCCCOC1CCCc2ccccc21 (centres undefined)	2.618	0	0.8974	1.46	-6.638
CN(C)CCOCc1nnc2n1CCN(c1cnccn1)CC2	6.952	31.62	-4.506	2.875	-11.67
Cc1nc(CN2CCC(CNC(=O)Nc3ccccn3)CC2)oc1C	0	18.87	1.648	0.6335	0.4405
CN(C)C(=O)N1CCN(c2ccc(Cl)nn2)C(=O)C1	8.876	0	-4.435	-6.162	-5.263
CCOc1ccccc1C(CC(=O)N(C)c1ccccc1)NC(C)=O (centres undefined)	-3.279	27.4	7.168	1.12	18.34
CCc1n[nH]c(C2CN(C(=O)c3ncoc3C(C)C)CCO2)n1 (centres undefined)	1.141	12.5	-5.673	4.88	1.581
CS(=O)(=O)N[C@@H]1CCO[C@]2(CCN(CC3CCOCC3)C2)C1	5.806	-1.01	-	2.206	0.2415
[H][C@@]12COC[C@]1(CNS(C)(=O)=O)CN(C(=O)Cc1ccccc1F)C2	-	-	-1.663	-	-
CC(C)OC(=O)N1CCCC2(CCC(=O)N(CCc3c[nH]cn3)C2)C1 (centres undefined)	5.941	20.55	3.797	6.365	-0.1631
CCOc1cccc2c1OCC(=O)N(c1ccc3c(c1)OCCO3)C2	10	13.04	17.94	0.292	1.695
COCc1nnc2n1CCN(Cc1ccoc1)C2.O=C(O)C(F)(F)F	-	-	-1.183	-	-
CN1CCN(CC2(O)CCN(C(=O)CCc3ccccc3F)C2)CC1 (centres undefined)	7.28	5.755	-21.76	0.04271	6.459
O=C(O)C(F)(F)F.O=C(O)C(F)(F)F.[H][C@@]12CN(Cc3ccncc3)C[C@]1([H])[C@H](OC)CCN2S(=O)(=O)N(C)C	-	-	0.3976	-	-
CCn1cc(C(=O)NCC2(C(N)=O)CCOCC2)c2ccccc21	1.02	12.9	17.63	2.718	3.515
O=C1N(Cc2ccccn2)C[C@H]2CN(C3CCC3)CCN12	2.488	27.03	-	2.477	9.524 and 21.81
CCc1n[nH]c(C2CN(C(=O)c3cc(C4CC4)on3)CCO2)n1 (centres undefined)	-1	2.74	-4.023	0.9689	3.294
O=C1CC(C(=O)O)C2(CCN(C(=O)Nc3ccccc3Cl)CC2)N1 (centres undefined)	1.734	17.33	-5.339	0.9854	19.42
CNc1cc(N2CCCC2CNCc2cccnc2C)ncn1 (centres undefined)	4.036	12.94	-5.09	5.577	3.553

The last 6 entries again:

| SMILES | TcHisRS | LiHisRS | Toxoplasma | PfKRS1 | CoaBC |
|---|---|---|---|---|---|
| `O=C(O)C(F)(F)F.O=C(O)C(F)(F)F.[H][C@@]12CN(Cc3ccncc3)C[C@]1([H])[C@H](OC)CCN2S(=O)(=O)N(C)C` | - | - | 0.3976 | - | - |
| `CCn1cc(C(=O)NCC2(C(N)=O)CCOCC2)c2ccccc21` | 1.02 | 12.9 | 17.63 | 2.718 | 3.515 |
| `O=C1N(Cc2ccccn2)C[C@H]2CN(C3CCC3)CCN12` | 2.488 | 27.03 | - | 2.477 | 9.524 and 21.81 |
| `CCc1n[nH]c(C2CN(C(=O)c3cc(C4CC4)on3)CCO2)n1` (centres undefined) | -1 | 2.74 | -4.023 | 0.9689 | 3.294 |
| `O=C1CC(C(=O)O)C2(CCN(C(=O)Nc3ccccc3Cl)CC2)N1` (centres undefined) | 1.734 | 17.33 | -5.339 | 0.9854 | 19.42 |
| `CNc1cc(N2CCCC2CNCc2cccnc2C)ncn1` (centres undefined) | 4.036 | 12.94 | -5.09 | 5.577 | 3.553 |

Measurements from “University of Dundee, Small-Polar-MMV Screening Library” (2021), ChEMBL document CHEMBL3988442.